The values that follow come from article PMC2908686.

Sequences of proteins named here, by UniProt entry; tags and fusion partners are left off.
UniProt Q9UNE7: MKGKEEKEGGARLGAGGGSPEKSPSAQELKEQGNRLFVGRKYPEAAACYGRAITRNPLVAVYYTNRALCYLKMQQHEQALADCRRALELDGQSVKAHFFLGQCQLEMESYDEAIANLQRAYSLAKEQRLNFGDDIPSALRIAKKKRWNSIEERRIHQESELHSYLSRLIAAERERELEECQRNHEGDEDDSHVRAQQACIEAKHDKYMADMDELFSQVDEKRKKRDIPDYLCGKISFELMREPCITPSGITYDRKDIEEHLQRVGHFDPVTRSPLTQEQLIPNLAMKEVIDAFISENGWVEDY
UniProt Q08752: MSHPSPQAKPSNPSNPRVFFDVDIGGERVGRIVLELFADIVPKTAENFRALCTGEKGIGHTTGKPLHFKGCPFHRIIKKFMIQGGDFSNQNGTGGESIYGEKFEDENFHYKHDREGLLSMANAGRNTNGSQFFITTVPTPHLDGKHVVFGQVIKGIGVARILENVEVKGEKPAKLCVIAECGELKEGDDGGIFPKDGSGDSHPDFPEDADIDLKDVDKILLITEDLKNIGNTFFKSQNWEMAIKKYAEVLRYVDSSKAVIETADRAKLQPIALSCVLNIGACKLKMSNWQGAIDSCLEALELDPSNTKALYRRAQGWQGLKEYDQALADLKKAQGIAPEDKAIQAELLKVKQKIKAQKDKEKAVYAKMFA
UniProt P06401: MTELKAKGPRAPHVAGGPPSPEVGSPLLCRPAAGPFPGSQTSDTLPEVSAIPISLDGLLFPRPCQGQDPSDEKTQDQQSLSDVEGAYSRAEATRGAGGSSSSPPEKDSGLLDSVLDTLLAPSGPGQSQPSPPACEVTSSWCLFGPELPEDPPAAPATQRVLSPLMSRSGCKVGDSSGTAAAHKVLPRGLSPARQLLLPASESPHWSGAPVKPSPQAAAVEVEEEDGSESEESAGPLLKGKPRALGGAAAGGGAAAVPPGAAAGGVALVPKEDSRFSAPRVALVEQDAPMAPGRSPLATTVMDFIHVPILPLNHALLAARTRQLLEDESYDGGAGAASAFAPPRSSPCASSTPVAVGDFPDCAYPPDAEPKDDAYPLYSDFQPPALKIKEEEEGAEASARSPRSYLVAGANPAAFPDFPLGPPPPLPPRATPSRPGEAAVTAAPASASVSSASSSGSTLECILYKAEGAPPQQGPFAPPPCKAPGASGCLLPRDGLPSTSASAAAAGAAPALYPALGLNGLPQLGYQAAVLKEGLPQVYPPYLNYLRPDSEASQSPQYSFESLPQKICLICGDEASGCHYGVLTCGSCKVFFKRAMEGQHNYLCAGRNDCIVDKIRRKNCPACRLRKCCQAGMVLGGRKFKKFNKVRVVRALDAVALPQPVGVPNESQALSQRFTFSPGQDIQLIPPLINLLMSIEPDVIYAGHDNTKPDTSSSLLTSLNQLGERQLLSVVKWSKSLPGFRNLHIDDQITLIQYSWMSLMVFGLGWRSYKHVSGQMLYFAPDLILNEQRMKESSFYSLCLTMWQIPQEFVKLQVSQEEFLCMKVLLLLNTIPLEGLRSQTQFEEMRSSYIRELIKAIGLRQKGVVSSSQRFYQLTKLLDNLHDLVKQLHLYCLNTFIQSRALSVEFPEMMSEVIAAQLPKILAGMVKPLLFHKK
UniProt P04150: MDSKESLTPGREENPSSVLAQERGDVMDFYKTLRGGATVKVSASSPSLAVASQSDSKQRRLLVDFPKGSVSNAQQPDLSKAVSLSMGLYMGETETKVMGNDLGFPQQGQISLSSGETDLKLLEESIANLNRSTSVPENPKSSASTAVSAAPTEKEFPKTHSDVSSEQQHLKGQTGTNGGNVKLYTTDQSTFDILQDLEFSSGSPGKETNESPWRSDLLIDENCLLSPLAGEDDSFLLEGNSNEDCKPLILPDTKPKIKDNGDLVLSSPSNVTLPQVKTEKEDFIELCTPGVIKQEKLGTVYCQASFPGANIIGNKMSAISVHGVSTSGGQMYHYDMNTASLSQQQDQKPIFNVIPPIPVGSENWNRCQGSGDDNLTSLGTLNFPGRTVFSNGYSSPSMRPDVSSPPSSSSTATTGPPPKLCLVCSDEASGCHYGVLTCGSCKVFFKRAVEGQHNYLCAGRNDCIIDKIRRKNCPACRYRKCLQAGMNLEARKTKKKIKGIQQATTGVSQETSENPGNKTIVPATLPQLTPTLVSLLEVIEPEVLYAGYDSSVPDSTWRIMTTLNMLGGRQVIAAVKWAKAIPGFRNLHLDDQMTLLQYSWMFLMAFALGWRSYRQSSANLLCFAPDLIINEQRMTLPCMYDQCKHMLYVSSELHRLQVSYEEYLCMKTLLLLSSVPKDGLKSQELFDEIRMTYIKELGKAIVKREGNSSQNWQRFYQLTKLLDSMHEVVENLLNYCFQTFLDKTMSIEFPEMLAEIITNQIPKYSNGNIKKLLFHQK
UniProt P08235: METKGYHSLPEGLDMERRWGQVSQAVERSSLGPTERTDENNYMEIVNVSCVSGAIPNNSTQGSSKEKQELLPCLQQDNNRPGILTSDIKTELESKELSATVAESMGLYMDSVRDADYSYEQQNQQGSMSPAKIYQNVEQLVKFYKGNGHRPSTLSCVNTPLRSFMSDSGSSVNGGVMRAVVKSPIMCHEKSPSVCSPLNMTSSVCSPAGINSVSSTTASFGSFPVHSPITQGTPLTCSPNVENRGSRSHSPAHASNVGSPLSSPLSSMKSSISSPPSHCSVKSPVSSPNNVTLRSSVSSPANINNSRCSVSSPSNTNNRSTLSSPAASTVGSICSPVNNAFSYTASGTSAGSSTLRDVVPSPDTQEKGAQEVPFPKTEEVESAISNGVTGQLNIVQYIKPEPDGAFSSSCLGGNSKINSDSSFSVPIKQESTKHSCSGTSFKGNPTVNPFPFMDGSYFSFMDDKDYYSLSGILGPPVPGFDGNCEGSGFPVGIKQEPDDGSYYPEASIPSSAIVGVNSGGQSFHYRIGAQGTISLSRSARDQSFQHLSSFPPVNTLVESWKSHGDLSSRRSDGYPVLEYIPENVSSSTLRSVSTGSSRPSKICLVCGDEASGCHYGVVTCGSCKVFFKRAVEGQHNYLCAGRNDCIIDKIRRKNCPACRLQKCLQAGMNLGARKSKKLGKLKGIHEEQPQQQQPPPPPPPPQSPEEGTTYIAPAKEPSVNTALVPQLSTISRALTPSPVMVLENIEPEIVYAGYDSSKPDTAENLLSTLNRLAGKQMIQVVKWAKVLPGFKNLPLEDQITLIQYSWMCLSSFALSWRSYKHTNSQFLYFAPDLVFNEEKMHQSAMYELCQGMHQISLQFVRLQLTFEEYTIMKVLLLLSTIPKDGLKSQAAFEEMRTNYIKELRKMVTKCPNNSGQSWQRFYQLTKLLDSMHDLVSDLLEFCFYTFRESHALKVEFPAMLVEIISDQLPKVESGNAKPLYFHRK
UniProt P10275: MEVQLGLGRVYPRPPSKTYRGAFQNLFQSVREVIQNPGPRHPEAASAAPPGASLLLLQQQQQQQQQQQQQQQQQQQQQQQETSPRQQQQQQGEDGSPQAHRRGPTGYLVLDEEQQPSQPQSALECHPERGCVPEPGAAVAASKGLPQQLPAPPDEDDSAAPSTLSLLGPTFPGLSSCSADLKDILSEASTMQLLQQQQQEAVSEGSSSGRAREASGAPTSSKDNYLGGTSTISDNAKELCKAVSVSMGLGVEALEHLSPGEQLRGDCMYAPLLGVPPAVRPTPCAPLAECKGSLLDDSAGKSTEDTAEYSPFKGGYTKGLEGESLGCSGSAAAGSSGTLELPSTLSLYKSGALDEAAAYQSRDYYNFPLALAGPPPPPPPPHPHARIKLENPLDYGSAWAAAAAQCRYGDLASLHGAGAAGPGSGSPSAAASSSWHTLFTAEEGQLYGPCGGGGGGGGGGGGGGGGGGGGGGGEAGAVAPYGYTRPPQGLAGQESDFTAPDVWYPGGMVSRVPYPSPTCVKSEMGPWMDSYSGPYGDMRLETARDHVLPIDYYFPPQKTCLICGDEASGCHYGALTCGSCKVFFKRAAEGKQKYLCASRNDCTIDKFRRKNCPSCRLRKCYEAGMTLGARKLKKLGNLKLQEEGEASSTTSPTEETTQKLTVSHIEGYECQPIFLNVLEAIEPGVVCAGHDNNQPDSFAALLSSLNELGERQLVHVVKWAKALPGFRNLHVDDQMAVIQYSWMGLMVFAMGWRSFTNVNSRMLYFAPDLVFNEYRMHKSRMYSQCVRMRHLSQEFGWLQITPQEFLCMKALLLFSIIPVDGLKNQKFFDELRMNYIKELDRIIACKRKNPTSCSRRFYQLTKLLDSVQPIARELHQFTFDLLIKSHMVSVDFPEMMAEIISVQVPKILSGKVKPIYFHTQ

The target of experiment [1] is T1, FK506 binding protein 51 (FKBP51), C-terminal FLAG fusion (UniProt Q13451).
T1 sequence: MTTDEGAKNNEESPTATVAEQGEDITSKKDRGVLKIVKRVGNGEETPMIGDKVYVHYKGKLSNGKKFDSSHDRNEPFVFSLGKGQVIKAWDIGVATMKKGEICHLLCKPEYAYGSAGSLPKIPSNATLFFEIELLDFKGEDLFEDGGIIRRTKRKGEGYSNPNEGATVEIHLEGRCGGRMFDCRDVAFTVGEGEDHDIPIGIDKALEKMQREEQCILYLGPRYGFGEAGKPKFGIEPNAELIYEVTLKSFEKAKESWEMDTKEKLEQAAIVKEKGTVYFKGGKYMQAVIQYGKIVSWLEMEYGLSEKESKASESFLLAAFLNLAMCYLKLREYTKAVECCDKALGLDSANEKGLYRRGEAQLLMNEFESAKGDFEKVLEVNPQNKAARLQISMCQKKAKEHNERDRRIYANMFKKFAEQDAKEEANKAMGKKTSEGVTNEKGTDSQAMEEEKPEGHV
Description: co-IP; HEK-293 co-expressing an HA-tagged steroid receptor and a FLAG-tagged TPR protein, steroid-free serum; Lysis-Buffer A'; TPR protein precipitated on anti-FLAG M2 agarose overnight at 4°C, FLAG-peptide elution; co-precipitated receptor by HA immunoblot, densitometry. A general note: In western blotting, separated proteins are transferred to a membrane and probed.

Experiment [2] deals with T2, tetratricopeptide repeat protein 2 (TPR2), C-terminal FLAG fusion (UniProt Q99615).
T2 sequence: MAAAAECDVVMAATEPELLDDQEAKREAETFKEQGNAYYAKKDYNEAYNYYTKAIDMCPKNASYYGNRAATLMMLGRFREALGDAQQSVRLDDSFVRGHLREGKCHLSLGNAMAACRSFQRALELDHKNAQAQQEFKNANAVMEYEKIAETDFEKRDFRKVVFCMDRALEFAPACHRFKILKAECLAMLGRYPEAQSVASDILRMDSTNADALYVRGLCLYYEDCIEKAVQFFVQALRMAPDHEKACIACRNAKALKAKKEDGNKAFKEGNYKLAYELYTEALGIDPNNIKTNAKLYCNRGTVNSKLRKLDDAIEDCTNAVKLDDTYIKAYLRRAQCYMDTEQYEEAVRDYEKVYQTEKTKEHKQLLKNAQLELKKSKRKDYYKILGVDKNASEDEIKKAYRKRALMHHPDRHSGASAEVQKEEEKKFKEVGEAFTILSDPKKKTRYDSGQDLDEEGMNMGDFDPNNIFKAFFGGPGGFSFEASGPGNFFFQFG
The description is as above.

For experiment [3], the target named is T3, protein phosphatase 5 (PP5), C-terminal FLAG fusion (UniProt P53041).
T3 sequence: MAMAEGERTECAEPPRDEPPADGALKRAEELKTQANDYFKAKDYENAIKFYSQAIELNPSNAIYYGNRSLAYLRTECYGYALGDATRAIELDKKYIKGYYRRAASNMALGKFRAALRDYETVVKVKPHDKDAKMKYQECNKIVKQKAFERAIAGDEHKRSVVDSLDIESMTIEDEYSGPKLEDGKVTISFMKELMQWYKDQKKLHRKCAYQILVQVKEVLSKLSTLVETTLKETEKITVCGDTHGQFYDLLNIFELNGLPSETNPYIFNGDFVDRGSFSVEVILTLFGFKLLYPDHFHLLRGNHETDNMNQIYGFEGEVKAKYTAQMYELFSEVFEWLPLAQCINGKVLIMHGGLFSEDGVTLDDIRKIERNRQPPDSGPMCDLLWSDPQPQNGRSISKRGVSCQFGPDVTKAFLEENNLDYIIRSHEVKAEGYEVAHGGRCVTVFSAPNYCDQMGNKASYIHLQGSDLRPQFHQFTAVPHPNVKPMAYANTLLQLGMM
The description is as above.

For experiment [4], the target named is C-terminus of Hsp70 interacting protein (CHIP), C-terminal FLAG fusion (UniProt Q9UNE7). The description is as above.
Experiment [5] deals with Cyclophillin-40 (Cyp40), C-terminal FLAG fusion (UniProt Q08752). The description is as above.
For experiment [6], the target named is progesterone receptor (PR), N-terminally HA-tagged (UniProt P06401). In words: co-IP; HEK-293 co-expressing an HA-tagged steroid receptor and a FLAG-tagged TPR protein, steroid-free serum; Lysis-Buffer A' (130 mM NaCl, 20 mM Na2MoO4, 20 mM Tris-HCl pH 7.5, 0.5% Triton X-100); receptor precipitated on anti-HA agarose overnight at 4°C, HA-peptide elution; co-precipitated TPR proteins by FLAG immunoblot, densitometry.

For experiment [7], the target named is glucocorticoid receptor (GR), N-terminally HA-tagged (UniProt P04150). The description is as above.
Experiment [8] addresses mineralocorticoid receptor (MR), N-terminally HA-tagged (UniProt P08235). The description is as above.
Experiment [9] has as its target androgen receptor (AR), N-terminally HA-tagged (UniProt P10275). Described as above.
Experiment [10] has as its target T3, protein phosphatase 5 (PP5), C-terminal FLAG fusion. Description: co-IP; same FLAG-IPs of the TPR proteins from HEK-293 lysates; co-precipitated endogenous Hsp90 and Hsp70 by Coomassie staining (Hsp70 background on the resin subtracted), p23 by immunoblot; normalized to the precipitated TPR cofactor; experiments with different steroid receptors pooled.
The target of experiment [11] is T4, FK506 binding protein 52 (FKBP52), C-terminal FLAG fusion (UniProt Q02790).
T4 sequence: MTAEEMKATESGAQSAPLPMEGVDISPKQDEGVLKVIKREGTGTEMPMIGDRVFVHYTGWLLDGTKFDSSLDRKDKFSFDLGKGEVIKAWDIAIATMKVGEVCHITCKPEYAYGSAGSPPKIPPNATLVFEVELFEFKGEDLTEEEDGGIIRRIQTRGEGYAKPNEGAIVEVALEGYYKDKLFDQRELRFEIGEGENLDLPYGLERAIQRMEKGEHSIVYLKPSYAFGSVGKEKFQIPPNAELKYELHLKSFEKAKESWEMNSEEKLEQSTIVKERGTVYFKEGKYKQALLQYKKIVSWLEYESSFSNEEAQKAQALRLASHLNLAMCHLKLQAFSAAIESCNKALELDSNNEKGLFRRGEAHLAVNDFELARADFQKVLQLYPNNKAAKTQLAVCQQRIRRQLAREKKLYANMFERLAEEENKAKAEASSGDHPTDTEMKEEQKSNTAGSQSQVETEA
The experiment is described as above.

The target of experiment [12] is T5, FK506 binding protein 51 (FKBP51), C-terminal FLAG fusion, Q13451.
T5 chain: T1 sequence
The description is as above. As to conditions: remark: other sources report otherwise.

No constants are given. Whether binding was seen depends on the method and setting. In cells and extracts the contact can be indirect. Some results given as binding are weak or reduced against the parent protein; the word gives no strength. For some assays here: Tags and fused reporters may be left off the sequences shown.

In the case of “mineralocorticoid receptor (MR), N-terminally HA-tagged (from UniProt P08235 1-984)”, the binding entry is “binds” in experiment [1]; “binds” in experiment [2]; “binds” in experiment [3]; “binds” in [4]; “binds weakly” in [5].
Take “C-terminus of Hsp70 interacting protein (CHIP), C-terminal FLAG fusion (from UniProt Q9UNE7 1-303)”: the binding result in experiment [6], in experiment [7] and in experiment [8] was “binds” in each case.
As to “glucocorticoid receptor (GR), N-terminally HA-tagged (from UniProt P04150 1-777)”, the binding entry in experiment [1] is recorded as “binds”; in experiment [2], “binds”; in experiment [3], “binds”; in experiment [4], “binds”; in experiment [5], “binds weakly”.
Turning to “Cyclophillin-40 (Cyp40), C-terminal FLAG fusion (from UniProt Q08752 1-370)”, the binding result in [9], in [6], in experiment [7] and in experiment [8] was “binds weakly” in each case.

B1: p23, endogenous (protein, UniProt Q15185 1-160)
chain: MQPASAKWYDRRDYVFIEFCVEDSKDVNVNFEKSKLTFSCLGGSDNFKHLNEIDLFHCIDPNDSKHKRTDRSILCCLRKGESGQSWPRLTKERAKLNWLSVDFNNWKDWEDDSDEDMSNFDRFSEMMNNMGGDEDVDLPEVDGADDDSQDSDDEKMPDLE
As for B1, the binding entry in experiment [10] and in experiment [11] was “binds” each time.

B2: p23, endogenous, Q15185 1-160 (protein)
chain: B1 chain
Turning to B2, the binding entry in [12] is reported as “binds”.
